# Out of some 400,000 compounds screened, about 13,000 (3.2%) were called active. Inconclusive means that the source gave no clear call. Such entries were picked first, then a sample of the others. The call rests on the fitted dose curve; in most records, active means well fitted cell-killing curve with a large enough effect; inconclusive means small, poorly fitted or top-dose-only effect, or effect the other way; inactive means flat fitted curve, though single readings scatter. Potencies of inconclusive entries are doubtful fits and often do not repeat.
# Experiment: qHTS assay for MDR1-selective chemotherapeutics: Primary screen using the drug-selected MDR subline cells KB-V1; further: nearly all actives have a fitted effect of over 60% in size
# Conditions: KB-V1 MDR cells viability, CellTiter-Glo, 72 h; activity change, negative = cytotoxicity: at 46.1 µM (top of the series)
# How it was run: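 qHTS viability screen in drug-selected KB-V1 MDR cells: 72 h compound treatment at 37 degrees C, ATP luminescence end point.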
# On the % scale 0 is the no-effect control and ±100 the full control effect; potency means the concentration at half of the fitted maximal effect.
Compound,"activity change, negative = cytotoxicity",Potency
COCc1nnc(NS(=O)(=O)c2ccc(F)cc2)s1,inconclusive: 31%,
COc1ccc(N2C(=O)C(OC(C)=O)C2c2ccc(C)cc2)cc1 (stereo unspecified),,"inconclusive: 29.1 µM [cytotoxic, single point]"
CCOC(=O)Cn1c(=O)n(C2CCCCC2)c2nc(-c3ccc(Cl)cc3)nc(C(N)=O)c21,inactive: -7.13%,
CSc1ccc(C(=O)C2CCCN(C(=O)c3ccc4c(c3)no[n+]4[O-])C2)cc1 (stereo unspecified),,"inconclusive: 20.6 µM [cytotoxic, single point]"
COc1cc(C(=O)N2CCN(c3ccccc3)CC2)c2ccccc2n1,,"inconclusive: 0.259 µM [cytotoxic, full curve, poor fit]"
Cc1cc(Cl)ccc1OCc1nc(-c2ccncc2)no1,,"inconclusive: 29.1 µM [cytotoxic, single point]"
C[C@H]1CN([C@@H](C)CO)C(=O)CCCn2nncc2CO[C@@H]1CN(C)C(=O)Nc1cccc2ccccc12,inactive: -7.96%,
Cc1ccc(-n2nnnc2SCC(=O)NCC2(N3CCOCC3)CCCCC2)cc1,,"inconclusive: 4.61 µM [cytotoxic, full curve]"
COc1ccc(-c2csc(NC(=O)c3nc(-c4ccccc4)oc3C)n2)cc1,,"inconclusive: 29.1 µM [rising, single point]"
CCCNC(=O)c1cc(-c2ccco2)on1,,"inconclusive: 18.4 µM [cytotoxic, single point]"
CC(=O)N1CCc2c(sc3c2c(=O)n(-c2ccccc2C)c(=O)n3Cc2cccc(F)c2)C1,inactive: -26.9%,
Clc1ccc2c(N/N=C/c3cccnc3)ccnc2c1,,"inconclusive: 29.1 µM [cytotoxic, single point]"
COc1cccc(CNC(=O)c2ccc(C)c(S(=O)(=O)N3CCCCC3)c2)c1,,"inconclusive: 6.51 µM [cytotoxic, partial curve]"
O=C(CNC(=O)c1ccco1)NNC(=O)c1ccc(Br)cc1,,"inconclusive: 29.1 µM [rising, single point]"
CC1CCN(C(=O)c2cnn(-c3cccc(Cl)c3)c2C2CCN(C(=O)OC(C)(C)C)CC2)CC1,inactive: 7.26%,
COC(=O)c1cc2c(ccn2-c2ccc(F)cc2)n1Cc1cccc(OC)c1,,active: 13 µM
Cc1ccc(-c2nc3cc(Cl)ccc3o2)cc1NC(=O)COc1ccccc1C,,"inconclusive: 29.1 µM [rising, single point]"
CCOC(=O)c1cnc(SCC(=O)Nc2ccccc2C(=O)OC)nc1N,,active: 2.59 µM
CN(C)S(=O)(=O)c1cccc(NC(=O)CCc2nc3sc4c(c3c(=O)[nH]2)CCCC4)c1,,"inconclusive: 25.9 µM [rising, single point]"
N#C/C(=C/c1ccc(F)cc1)c1nc(CCN2C(=O)c3ccccc3C2=O)cs1,inactive: -0.867%,
COc1ccccc1/C=N/NC(=O)c1cc2c(OC)c(OC)ccc2[nH]1,,"inconclusive: 14.6 µM [cytotoxic, partial curve, poor fit]"
CC(=O)[C@@]1(O)[C@H](C)CC2C3CC=C4CC(OP(=O)(O)O)CC[C@]4(C)C3CC[C@@]21C (stereo partly specified),,"inconclusive: 16.4 µM [rising, single point]"

Compound,"activity change, negative = cytotoxicity",Potency
O=C(c1cccnc1Cl)N(Cc1ccccc1)Cc1ccccc1,,"inconclusive: 16.4 µM [cytotoxic, single point]"
CCCCN(C)CCNC(=O)c1cc2c(-c3cccc(OC)c3)nn(C)c2s1,,"inconclusive: 11.6 µM [cytotoxic, partial curve, poor fit]"
Cc1cc(C)cc(NC(=O)CN2CCN(c3ncccn3)CC2)c1,,"inconclusive: 20.6 µM [cytotoxic, single point]"
Cc1cc2cc(CN(CCCO)S(=O)(=O)c3cccc4nsnc34)c(=O)[nH]c2cc1C,,"inconclusive: 29.1 µM [cytotoxic, single point]"
CCN(CC)CCCN(Cc1cc2cc3c(cc2[nH]c1=O)OCO3)C(=S)Nc1ccccc1,,"inconclusive: 16.4 µM [rising, single point]"
CC(C)NCC(O)COC1CCC(C(C)(C)C)CC1 (stereo unspecified),,"inconclusive: 9.2 µM [cytotoxic, partial curve, poor fit]"
CS(=O)(=O)c1ccc2nc(NC(NC(=O)c3ccco3)(C(F)(F)F)C(F)(F)F)sc2c1,,"inconclusive: 29.1 µM [cytotoxic, single point]"
O=C(NCCc1nc2ccccc2[nH]1)c1ccc(F)cc1,,active: 11.6 µM
Cc1ccc(S(=O)(=O)c2nc(-c3cccs3)oc2SCC(N)=O)cc1,inactive: -9.81%,
Cc1cnc(C(=O)Nc2ccc(C(C)C)cc2)cn1,,"inconclusive: 25.9 µM [cytotoxic, single point]"
CCOC(=O)C(=Cc1ccc(-n2cncn2)cc1)C(=O)OCC,inactive: -20.5%,
CC(=O)Nc1cccc(NC(=O)c2cc(-c3cccnc3)nc3ccc(Cl)cc23)c1,inactive: -11.9%,
COc1cccc(NC(=O)CN(C)C(=O)c2cc(-c3cccc(Br)c3)nc3ccccc23)c1,,"inconclusive: 18.4 µM [cytotoxic, partial curve]"
COc1cc(/C=N/NC(=O)c2ccncc2)ccc1OCC(=O)Nc1cccc([N+](=O)[O-])c1,,"inconclusive: 29.1 µM [rising, single point]"
O=C(CC(NS(=O)(=O)c1ccc(Cl)cc1)c1ccco1)N1CCc2ccccc21 (stereo unspecified),inactive: -6.44%,
COCCn1c(CN2CCN(c3ccc(OC)cc3)CC2)nc2c1c(=O)n(C)c(=O)n2C,,"inconclusive: 15.8 µM [cytotoxic, single point]"
O=C(Nc1ccc(CN2CCS(=O)(=O)CC2)cc1)c1ccc(C(F)(F)F)cc1,,"inconclusive: 18.4 µM [cytotoxic, partial curve, poor fit]"
COc1ccc(S(=O)(=O)Nc2cc3c(cc2NCc2ccccc2)n(C)c(=O)n3C)cc1OC,inactive: -5.38%,
CCNC(=O)c1c(C)[nH]c(C(=O)OCC)c1C,,"inconclusive: 35.5 µM [rising, partial curve, poor fit]"
O=C(Nc1ccc2c(c1)CCC2)c1ccc(Br)s1,,"inconclusive: 29.1 µM [cytotoxic, single point]"
O=C(CSc1nnc(-c2ccc(OC(F)F)cc2)o1)NC(=O)NCc1ccco1,,"inconclusive: 13 µM [cytotoxic, partial curve, poor fit]"
COc1ccc(/C(C)=N/OCC(=O)Nc2nc3ccccc3s2)cc1OC,,active: 14.6 µM

# Reprinted at random: three records from the list.
Compound,"activity change, negative = cytotoxicity",Potency
COc1ccc(S(=O)(=O)Nc2cc3c(cc2NCc2ccccc2)n(C)c(=O)n3C)cc1OC,inactive: -5.38%,
CC(=O)Nc1cccc(NC(=O)c2cc(-c3cccnc3)nc3ccc(Cl)cc23)c1,inactive: -11.9%,
COc1cc(/C=N/NC(=O)c2ccncc2)ccc1OCC(=O)Nc1cccc([N+](=O)[O-])c1,,"inconclusive: 29.1 µM [rising, single point]"

# (next part)

Compound,"activity change, negative = cytotoxicity",Potency
Cc1ccc(-n2nc3c(c2NC(=O)CC(C)C)CS(=O)(=O)C3)cc1,,"inconclusive: 16.4 µM [rising, single point]"
CCOc1ccc(CNC2CCCc3ccccc32)cc1 (stereo unspecified),,"inconclusive: 18.4 µM [cytotoxic, single point]"
COc1ccccc1C1=NNC(=Nc2cccc(S(=O)(=O)N(C)C)c2)SC1,,"inconclusive: 20.6 µM [cytotoxic, single point]"
Cc1ccc(C)c(S(=O)(=O)Nc2cccc(-n3cnnn3)c2)c1,,"inconclusive: 2.59 µM [rising, full curve]"
CCOc1ccc(C(=O)Nc2ccc3nc(SCc4ccccc4)sc3c2)cc1,inactive: 2.89%,
COc1ccc(Cn2cc(F)c(=O)n(CCC(C)C)c2=O)cc1[N+](=O)[O-],,"inconclusive: 20.6 µM [cytotoxic, single point]"
Cc1ccc(C(=O)COC(=O)c2ccc(-c3cnc4ccccc4n3)cc2)cc1C,,"inconclusive: 16.4 µM [cytotoxic, partial curve]"
COc1cccc(-n2nc(-c3ccnn3-c3ccccc3)c(=O)n(C)c2=O)c1,,"inconclusive: 8.2 µM [cytotoxic, partial curve, poor fit]"
COc1cc(-c2cc(O)c(-c3ccc4ccccc4n3)c(=O)[nH]2)cc(OC)c1OC,,"inconclusive: 5.8 µM [cytotoxic, partial curve]"
Cn1cc(S(=O)(=O)Nc2cccc3ccccc23)c(=O)n(C)c1=O,inactive: -8.56%,
CCOC(=O)COc1c(OC)cc(Cl)cc1C1Nc2ccccc2C(=O)N1c1ccc(F)cc1 (stereo unspecified),,"inconclusive: 23.1 µM [cytotoxic, single point]"
CC(C)Cc1ccc(C(C)/C=C2/CCC(CN3CCCCC3)C2=O)cc1 (stereo unspecified),,"inconclusive: 32.6 µM [cytotoxic, single point]"
CCCn1c(C(C)Nc2nc(-c3ccc(C)cc3)cs2)nc2cc(Cl)c(N3CCCCC3)cc21 (stereo unspecified),,"inconclusive: 29.1 µM [cytotoxic, partial curve, poor fit]"
O=C(CSc1nc2ccccc2c(=O)n1-c1ccccc1Cl)NCC1CCCO1 (stereo unspecified),inactive: -13.2%,
CN1C(=O)c2ccccc2Sc2ccc(C(=O)O)cc21,inactive: 32.1%,
C[C@]12c3[nH]c4cc(-c5ccco5)ccc4c3CCN1C(=O)[C@@H](CC(=O)NCCC1=CCCCC1)C[C@@H]2C(=O)N1CCOCC1,inactive: 0.0002%,
C/C=C/C(=O)OCC(=O)Nc1cccc(S(=O)(=O)NC2=NCCCCC2)c1,,"inconclusive: 6.51 µM [rising, full curve, poor fit]"
O=C1C(Cl)=C(NCCCN2CCOCC2)C(=O)c2ccccc21,,"inconclusive: 23.1 µM [cytotoxic, single point]"
CCN1C(=O)c2cccc3c(S(=O)(=O)N(C)C)ccc1c23,,active: 13 µM
CC1CC1c1ccc(/C=C(\C#N)C(=O)Nc2ccc(Cl)cc2)o1 (stereo unspecified),,"inconclusive: 29.1 µM [cytotoxic, single point]"
O=S(=O)(c1cccc(-c2nnc(-c3ccc(Br)cc3)o2)c1)N1CCCCCC1,,"inconclusive: 5.01 µM [cytotoxic, partial curve, poor fit]"
O=C1C2CC=CCC2C(=O)N1Cc1ccccc1Cl (stereo unspecified),inactive: -19.3%,

# Reference: PubChem BioAssay AID1347076 (National Center for Advancing Translational Sciences (NCATS), 2019)
